Values of other authors as cited in publication PMC8288134, “Synthesis, potential antitumor activity, cell cycle analysis, and multitarget mechanisms of novel hydrazones incorporating a 4-methylsulfonylbenzene scaffold: a molecular docking study” (Journal of Enzyme Inhibition and Medicinal Chemistry, 2021).

Test system: CAKI-1
Parameters: method as in https://dtp.cancer.gov/dtpstandard/dwindex/index.jsp
Settings: reference drugs, ref https://dtp.cancer.gov/dtpstandard/dwindex/index.jsp; cited from earlier work

SMILES: COc1cc2ncnc(Nc3ccc(F)c(Cl)c3)c2cc1OCCCN1CCOCC1 [Gefitinib, gefitinib]
- GI50: 501 nM
